In the supplement of paper PMC12024529:
Counter-ions that a name gives are not always drawn. The list shows a part of the results. Part of the spread comes from offsets between plates or batches.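 HEK293 lines stably express B-domain-deleted factor VIII fused to Gaussia luciferase, wild type or a misfolding-prone missense mutant. Scores equal triplicate-well mean luminescence minus DMSO mean, divided by DMSO standard deviation; scores of 2 or higher are hits. Low scores may indicate reduced secretion or worse cell viability.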

Tests used:
HEK293 WT BDD-FVIII-Gluc = assay: secreted FVIII-Gluc luciferase Z-score vs DMSO control; higher = more FVIII-Gluc secretion; conditions: 5 µM; 24 h
[1] = test system: HEK293 p.N1941S BDD-FVIII-Gluc; assay: as above; conditions: 5 µM; 24 h

Cc1c(N)nc(C(CC(N)=O)NCC(N)C(N)=O)nc1C(=O)NC(C(=O)NC(C)C(O)C(C)C(=O)NC(C(=O)NCCc1nc(-c2nc(C(=O)NCCC[S+](C)C)cs2)cs1)C(C)O)C(O[C@@H]1O[C@@H](CO)[C@@H](O)[C@H](O)[C@@H]1O[C@H]1O[C@H](CO)[C@@H](O)[C@H](OC(N)=O)[C@@H]1O)c1cnc[nH]1 (stereo partly drawn) [Bleomycin sulfate]
secreted FVIII-Gluc luciferase Z-score (HEK293 WT BDD-FVIII-Gluc): inactive: -3.58
secreted FVIII-Gluc luciferase Z-score [1]: inactive: -11.1

CNCC(=O)c1ccc(O)c(O)c1 [Adrenalone HCl]
secreted FVIII-Gluc luciferase Z-score (HEK293 WT BDD-FVIII-Gluc): inactive: -0.977
secreted FVIII-Gluc luciferase Z-score [1]: inactive: 0.7

Cc1cccc(C)c1NC(=O)CN1CCCC1=O [Nefiracetam (Translon)]
secreted FVIII-Gluc luciferase Z-score (HEK293 WT BDD-FVIII-Gluc): inactive: -2.59
secreted FVIII-Gluc luciferase Z-score [1]: inactive: -2.23

Cc1cccc(C)c1NC1=NCCCS1 [Xylazine HCl]
secreted FVIII-Gluc luciferase Z-score (HEK293 WT BDD-FVIII-Gluc): inactive: -1.56
secreted FVIII-Gluc luciferase Z-score [1]: inactive: -1.07

COC(=O)C1=CCCN(C)C1 [Arecoline]
secreted FVIII-Gluc luciferase Z-score (HEK293 WT BDD-FVIII-Gluc): inactive: 1.63
secreted FVIII-Gluc luciferase Z-score [1]: inactive: -0.395

C[C@@H]1CC[C@H]2[C@@H](C)C(=O)O[C@@H]3O[C@@]4(C)CC[C@@H]1[C@]32OO4 [Artemisinin]
secreted FVIII-Gluc luciferase Z-score (HEK293 WT BDD-FVIII-Gluc): inactive: -1.05
secreted FVIII-Gluc luciferase Z-score [1]: inactive: -0.914

C=CC[C@]1(O)CC[C@H]2[C@@H]3CCC4=CC(=O)CCC4=C3C=C[C@@]21C [Altrenogest]
secreted FVIII-Gluc luciferase Z-score (HEK293 WT BDD-FVIII-Gluc): inactive: -0.482
secreted FVIII-Gluc luciferase Z-score [1]: inactive: -1.49

CCC1(C)CC(=O)NC(=O)C1 [Bemegride]
secreted FVIII-Gluc luciferase Z-score (HEK293 WT BDD-FVIII-Gluc): inactive: -0.895
secreted FVIII-Gluc luciferase Z-score [1]: inactive: 1.74

CC(C)c1c(CN(C)C(C)Cc2ccccc2)n(C)n(-c2ccccc2)c1=O (stereo not drawn) [Famprofazone]
secreted FVIII-Gluc luciferase Z-score (HEK293 WT BDD-FVIII-Gluc): inactive: -0.581
secreted FVIII-Gluc luciferase Z-score [1]: inactive: 0.109
